# ± gives the standard deviation of the averaged measurements. Differences between knockout arms are mostly noise.
# Test system: ZR-75-1
# Assay: relative cell number vs DMSO control (72 h) (% of DMSO); higher = less growth inhibition (more cells)
# Method: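 QMAP-Seq: a pool of 5 breast cancer cell lines (ZR-75-1, SKBR3, HCC-38, MDA-MB-231, BT-20), each carrying 12 doxycycline-inducible Cas9 sgRNA perturbations (11 knockouts plus non-targeting sgNT), was treated with compounds for 72 h at four 10-fold doses (10 nM-10 uM or 1 nM-1 uM range). Barcodes were amplified and sequenced, and cell number was interpolated from 293T spike-in standard curves. The result is expressed as % of the median of DMSO wells. Two biological replicates.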
# [1] = sgRNA knockout: sgATF3, 1000 nM
# [2] = sgRNA knockout: sgATF3, 10000 nM
# [3] = sgRNA knockout: sgATF4, 1000 nM
# [4] = sgRNA knockout: sgATF4, 10000 nM
# [5] = sgRNA knockout: sgATF6, 1000 nM
# [6] = sgRNA knockout: sgATF6, 10000 nM
# [7] = sgRNA knockout: sgATG7, 1000 nM
# [8] = sgRNA knockout: sgATG7, 10000 nM
# [9] = sgRNA knockout: sgERN1, 1000 nM
# [10] = sgRNA knockout: sgERN1, 10000 nM
# [11] = sgRNA knockout: sgHSF2, 1000 nM
# [12] = sgRNA knockout: sgHSF2, 10000 nM
# [13] = sgRNA knockout: sgNFE2L2, 10 nM
# [14] = sgRNA knockout: sgNFE2L2, 100 nM
# [15] = sgRNA knockout: sgNFE2L2, 1000 nM
# [16] = sgRNA knockout: sgNFE2L2, 10000 nM
# [17] = sgRNA knockout: sgSLC35F2, 10 nM
# [18] = sgRNA knockout: sgSLC35F2, 100 nM
# [19] = sgRNA knockout: sgSLC35F2, 1000 nM
# [20] = sgRNA knockout: sgSLC35F2, 10000 nM
# [21] = sgRNA knockout: sgXBP1, 1000 nM
# [22] = sgRNA knockout: sgXBP1, 10000 nM
Structure (SMILES),"relative cell number (sgRNA knockout: sgATF3, 10 nM)","relative cell number (sgRNA knockout: sgATF3, 100 nM)",relative cell number [1],relative cell number [2],"relative cell number (sgRNA knockout: sgATF4, 10 nM)","relative cell number (sgRNA knockout: sgATF4, 100 nM)",relative cell number [3],relative cell number [4],"relative cell number (sgRNA knockout: sgATF6, 10 nM)","relative cell number (sgRNA knockout: sgATF6, 100 nM)",relative cell number [5],relative cell number [6],"relative cell number (sgRNA knockout: sgATG7, 10 nM)","relative cell number (sgRNA knockout: sgATG7, 100 nM)",relative cell number [7],relative cell number [8],"relative cell number (sgRNA knockout: sgERN1, 10 nM)","relative cell number (sgRNA knockout: sgERN1, 100 nM)",relative cell number [9],relative cell number [10],"relative cell number (sgRNA knockout: sgHSF2, 10 nM)","relative cell number (sgRNA knockout: sgHSF2, 100 nM)",relative cell number [11],relative cell number [12],relative cell number [13],relative cell number [14],relative cell number [15],relative cell number [16],relative cell number [17],relative cell number [18],relative cell number [19],relative cell number [20],"relative cell number (sgRNA knockout: sgXBP1, 10 nM)","relative cell number (sgRNA knockout: sgXBP1, 100 nM)",relative cell number [21],relative cell number [22]
COc1cc2nccc(Oc3ccc(NC(=O)NC4CC4)c(Cl)c3)c2cc1C(N)=O [Lenvatinib],122 ± 16,92.6 ± 4.5,112 ± 10,74.1 ± 1.5,153 ± 29,118 ± 1.9,116 ± 13,83.2 ± 5.9,96.9 ± 6,110 ± 31,103 ± 26,71.9 ± 9.7,98.2 ± 13,100 ± 27,91.4 ± 4.4,84.5 ± 1.7,117 ± 29,126.1 ± 0.24,132 ± 30,80.4 ± 15,96.4 ± 4.9,94.1 ± 34,117 ± 17,87.1 ± 22,108 ± 3.5,117 ± 42,121 ± 16,88.1 ± 22,96.7 ± 36,79.2 ± 7.6,83.2 ± 25,72.8 ± 2.5,112 ± 4.8,104 ± 34,111 ± 13,83.1 ± 30
CN1CCN(CCOc2cc(OC3CCOCC3)c3c(Nc4c(Cl)ccc5c4OCO5)ncnc3c2)CC1 [Saracatinib],88.7 ± 12,102 ± 14,64.1 ± 17,58.1 ± 7.8,78.2 ± 17,104 ± 19,72.8 ± 7.5,53.7 ± 2.7,96 ± 2.9,100 ± 88,72 ± 23,29.5 ± 18,92.2 ± 33,77.4 ± 32,67.4 ± 24,67.9 ± 18,77.1 ± 25,84.6 ± 16,114 ± 6.5,75.2 ± 4.3,75.2 ± 8.2,91.4 ± 3.3,82.08 ± 0.15,64.7 ± 10,114 ± 16,80.8 ± 2.1,83.3 ± 30,64.1 ± 5.1,107 ± 51,120 ± 21,59.4 ± 14,42.9 ± 28,79.6 ± 2.9,89.8 ± 8.1,91.5 ± 4.3,61.8 ± 2.4
CN(C)c1cc(NC(=O)CNC(C)(C)C)c(O)c2c1C[C@H]1C[C@H]3[C@H](N(C)C)C(O)=C(C(N)=O)C(=O)[C@@]3(O)C(O)=C1C2=O [Tigecycline],105 ± 39,110 ± 35,122 ± 33,113 ± 21,127 ± 5.2,81.1 ± 28,109 ± 27,99.7 ± 73,93.9 ± 9.7,69.3 ± 22,130 ± 30,89.3 ± 21,126 ± 24,125 ± 7.2,92.3 ± 13,84.9 ± 14,107 ± 4.2,106 ± 31,109.2 ± 0.28,99.8 ± 1.9,103 ± 29,119 ± 18,95.1 ± 17,115 ± 24,98.7 ± 5,91.3 ± 29,87 ± 1.7,80.6 ± 7.2,98.8 ± 65,70.3 ± 45,140 ± 21,119 ± 28,103 ± 20,104 ± 40,100 ± 7.3,80.4 ± 16
C[C@@H](Oc1cc(-c2cnn(C3CCNCC3)c2)cnc1N)c1c(Cl)ccc(F)c1Cl [Crizotinib],87.7 ± 56,115 ± 5.4,36.3 ± 5.6,16 ± 2.8,86.5 ± 13,115 ± 2.3,49 ± 14,13.78 ± 0.1,71.6 ± 3.3,107 ± 31,45.4 ± 0.87,24.2 ± 15,105 ± 32,100.9 ± 0.64,46.7 ± 8.1,24.1 ± 11,90.7 ± 15,86.7 ± 4.3,46 ± 9.4,30 ± 16,84 ± 15,78.3 ± 9.5,35.4 ± 8,25.7 ± 5.7,135 ± 43,102 ± 7.4,43.8 ± 1.9,22.7 ± 10,45.6 ± 14,118 ± 13,33 ± 17,21.4 ± 0.4,108 ± 23,88.9 ± 17,46.6 ± 2.4,20.9 ± 8.5
CC[C@@]1(O)C(=O)OCc2c1cc1n(c2=O)Cc2cc3c(CN(C)C)c(O)ccc3nc2-1 [Topotecan],66.4 ± 11,35 ± 4.7,25.7 ± 5.3,12.6 ± 1.9,85.6 ± 34,47 ± 4.2,17.3 ± 3.1,10.8 ± 0.52,64.7 ± 5.5,34 ± 1.6,29.4 ± 19,11.6 ± 6.1,78.53 ± 0.49,32 ± 18,20.5 ± 2.7,8.59 ± 6.7,60.2 ± 18,48.9 ± 2.3,29.4 ± 3.1,9.9 ± 1.7,69.6 ± 6.3,37.6 ± 0.81,27.8 ± 9.3,7.1 ± 0.5,72.18 ± 0.2,49.1 ± 12,22.5 ± 0.36,5.67 ± 2.8,56.6 ± 47,58.3 ± 4.8,26.5 ± 8.6,4.41 ± 2.6,62 ± 8.1,44.1 ± 5.9,24.2 ± 9.7,8.66 ± 1.2
O=C(c1cc(Cc2n[nH]c(=O)c3ccccc23)ccc1F)N1CCN(C(=O)C2CC2)CC1 [Olaparib],86.6 ± 30,108 ± 4.4,108 ± 6.9,62.4 ± 10,76.7 ± 27,77.9 ± 4.9,82.9 ± 39,73.7 ± 7.5,73.3 ± 28,93.8 ± 6.1,72.8 ± 23,85 ± 16,77.8 ± 8.8,76.7 ± 18,82.4 ± 22,73 ± 2.5,99.9 ± 8.2,105 ± 14,71.3 ± 2.7,73.5 ± 18,86.7 ± 7.8,103 ± 8.8,92.6 ± 24,58.3 ± 8.7,107 ± 49,102 ± 8.7,89.9 ± 51,55.6 ± 2.1,94.7 ± 13,65.9 ± 15,102 ± 14,65.2 ± 3.5,90.2 ± 36,96.1 ± 3.9,79.5 ± 9.9,63.5 ± 7.8
O=C1c2c(O)ccc(O)c2C(=O)c2c(NCCNCCO)ccc(NCCNCCO)c21 [Mitoxantrone],55.3 ± 2.5,28.9 ± 2.2,14.3 ± 4.5,9.41 ± 7.9,66.4 ± 9.3,40.8 ± 8.6,11.7 ± 4.9,6.91 ± 2.7,34.1 ± 11,16.7 ± 5.5,6.77 ± 1.6,5.08 ± 2.6,45.2 ± 7.9,30.2 ± 13,10.5 ± 3.8,7.58 ± 4.8,47.6 ± 14,27 ± 1.2,14.3 ± 2.1,8.85 ± 3.9,46.1 ± 0.56,29.1 ± 8.3,9.77 ± 3,5.48 ± 1.5,45.3 ± 14,27.2 ± 2.4,11.3 ± 4.3,7.38 ± 3.9,46.2 ± 10,18.8 ± 11,9.14 ± 1.6,4 ± 2,48 ± 6.5,32.8 ± 3.5,10.2 ± 0.91,7.95 ± 2.5
O=C(/C=C/c1ccc(O)cc1)c1ccc(O)cc1O [Isoliquiritigenin],104 ± 13,106 ± 38,108 ± 24,84.5 ± 13,86.1 ± 8.4,118 ± 69,100 ± 6.8,108 ± 19,97 ± 24,83.5 ± 9.5,88.9 ± 23,102 ± 23,124 ± 30,81 ± 2.3,116 ± 25,96.5 ± 13,84.7 ± 7,91.5 ± 14,89.2 ± 15,106 ± 14,110 ± 4.3,108 ± 40,95 ± 11,96.7 ± 31,131 ± 7.9,117 ± 11,79.3 ± 3.2,106 ± 6.7,102 ± 25,110 ± 36,92.4 ± 18,110 ± 15,106 ± 21,102 ± 7.3,90.6 ± 7.1,96.7 ± 11
Cc1ccc(S(=O)(=O)OCC(=O)Nc2ccc(C(=O)O)c(O)c2)cc1,93.7 ± 9.6,117 ± 5.9,113 ± 13,77.9 ± 22,133 ± 59,93.8 ± 5.3,93.3 ± 13,91.6 ± 17,111 ± 66,92.5 ± 57,106 ± 8,78.9 ± 32,97.4 ± 26,159 ± 30,98.898 ± 0.018,101 ± 9.1,129 ± 20,103 ± 22,87.8 ± 1.3,88 ± 15,108 ± 26,110 ± 7.7,86.7 ± 1.2,98.2 ± 24,119 ± 10,110 ± 34,79.1 ± 28,93.1 ± 4.1,70.3 ± 17,81 ± 4.3,92.8 ± 37,80.2 ± 39,117 ± 6.5,106 ± 16,85.5 ± 11,93.1 ± 0.77
O=C1CCC(N2C(=O)c3ccccc3C2=O)C(=O)N1 (stereo unspecified) [Thalidomide],102 ± 15,86.8 ± 27,87.7 ± 56,102 ± 17,137 ± 31,82.4 ± 32,129 ± 21,110 ± 41,95.7 ± 9.5,69.4 ± 17,115 ± 41,66.8 ± 22,79 ± 42,77.9 ± 5.8,104 ± 36,94.8 ± 7.5,109 ± 47,78.9 ± 2.1,86.4 ± 6.8,99.3 ± 13,90.9 ± 23,83.8 ± 30,104 ± 54,122 ± 50,115 ± 2.7,88.3 ± 15,142 ± 43,103 ± 17,112 ± 49,74.3 ± 11,139 ± 31,116 ± 35,98.1 ± 7.6,72.8 ± 2.7,105 ± 15,105 ± 24
COc1cc(-n2c(=S)[nH]c3ccccc3c2=O)c(Cl)cc1Cl [Mdivi1],108 ± 19,71.7 ± 12,90.4 ± 28,68.7 ± 8.2,55.2 ± 3.4,98.5 ± 27,78.4 ± 3.8,51.8 ± 3.9,68.3 ± 8.2,113 ± 63,90.8 ± 2.5,38.3 ± 11,99.1 ± 5.1,105 ± 67,102 ± 11,39.4 ± 3,82.6 ± 4.8,92.77 ± 0.29,68 ± 16,48.4 ± 15,96.9 ± 5.1,98.4 ± 15,77.6 ± 32,51.4 ± 2.9,98.4 ± 12,89 ± 6.3,73 ± 1.6,58.1 ± 21,37.9 ± 19,81.3 ± 33,56.1 ± 23,33.7 ± 16,100 ± 23,97.3 ± 3.7,78 ± 5.3,55.9 ± 13
